Laboratory results: PubChem BioAssay AID1259308 (NCATS, 2017)
Shown is a random part of about 59,000 deposited reagents. Over the whole deposit, about 1,510 (2.6%) were called active. 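Calls use total luciferase alone and ignore viability, so some active siRNAs may act by altering cell number.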 Unmarked entries are inactive. Reagents against one gene are numbered here. Further read-outs or replicates are left out here.

- Assay: 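Knock-downs that increase output of a recombinant reporter protein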 (primary screen)
- System: human HEK293 embryonic kidney cells stably expressing firefly luciferase (HEK-CMV-Luc2-Hygro)
- Reagents: single siRNA against human genes, 0.8 pmol siRNA per well
- Time to read-out: 72 h
- Measurement: 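Luciferase light (ONE-Glo) measured on one replicate plate set and viability (CellTiter-Glo) on the other, scaled to a negative control siRNA, with robust z-scores and luciferase per cell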
- Scale: total luciferase, z-score and total luciferase, % of control: higher = more reporter protein produced
- Hit rule: 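An siRNA counts as active if its total luciferase robust z-score exceeds 3; genes with two or more such siRNAs out of three were retested with fresh siRNAs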
- Meaning of the calls: active = raised luciferase; inactive = no rise

FGF7P6 #1 → total luciferase, z-score = 1.97; total luciferase, % of control = 121
FGF7P6 #2 → total luciferase, z-score = 0.24; total luciferase, % of control = 86.7
FGF7P6 #3 → total luciferase, z-score = 0.523; total luciferase, % of control = 92.3
TLCD2 #1 → total luciferase, z-score = 0.724; total luciferase, % of control = 96.3
TLCD2 #2 → total luciferase, z-score = 1.06; total luciferase, % of control = 103
TLCD2 #3 → total luciferase, z-score = 5.04 (active); total luciferase, % of control = 182
CBR1 #1 → total luciferase, z-score = 2.17; total luciferase, % of control = 125
CBR1 #2 → total luciferase, z-score = -0.734; total luciferase, % of control = 67.3
CBR1 #3 → total luciferase, z-score = 0.967; total luciferase, % of control = 101
QKI #1 → total luciferase, z-score = 0.213; total luciferase, % of control = 86.1
QKI #2 → total luciferase, z-score = 0.294; total luciferase, % of control = 87.7
QKI #3 → total luciferase, z-score = 2.06; total luciferase, % of control = 123
LEMD1 #1 → total luciferase, z-score = -2.76; total luciferase, % of control = 27
LEMD1 #2 → total luciferase, z-score = 0.732; total luciferase, % of control = 96.5
LEMD1 #3 → total luciferase, z-score = -0.66; total luciferase, % of control = 68.8

Targets listed so far whose gene name starts with L or l (3):
LEMD1 #1 → total luciferase, z-score = -2.76; total luciferase, % of control = 27
LEMD1 #2 → total luciferase, z-score = 0.732; total luciferase, % of control = 96.5
LEMD1 #3 → total luciferase, z-score = -0.66; total luciferase, % of control = 68.8

Next reagents follow:
MAGT1 #1 → total luciferase, z-score = -0.0507; total luciferase, % of control = 80.9
MAGT1 #2 → total luciferase, z-score = -1.13; total luciferase, % of control = 59.4
MAGT1 #3 → total luciferase, z-score = -0.709; total luciferase, % of control = 67.8
FOXD1 #1 → total luciferase, z-score = 0.793; total luciferase, % of control = 97.7
FOXD1 #2 → total luciferase, z-score = 0.127; total luciferase, % of control = 84.4
FOXD1 #3 → total luciferase, z-score = -0.773; total luciferase, % of control = 66.5
RNF126 #1 → total luciferase, z-score = 0.111; total luciferase, % of control = 84.1
RNF126 #2 → total luciferase, z-score = 0.509; total luciferase, % of control = 92
RNF126 #3 → total luciferase, z-score = 0.981; total luciferase, % of control = 101
KLHL4 #1 → total luciferase, z-score = -0.388; total luciferase, % of control = 74.2
KLHL4 #2 → total luciferase, z-score = 0.665; total luciferase, % of control = 95.1
KLHL4 #3 → total luciferase, z-score = 0.391; total luciferase, % of control = 89.7
PFN4 #1 → total luciferase, z-score = -0.0885; total luciferase, % of control = 80.1
PFN4 #2 → total luciferase, z-score = -1.74; total luciferase, % of control = 47.3
PFN4 #3 → total luciferase, z-score = 0.712; total luciferase, % of control = 96
SIRT6 #1 → total luciferase, z-score = -0.0717; total luciferase, % of control = 80.5
SIRT6 #2 → total luciferase, z-score = 0.51; total luciferase, % of control = 92
SIRT6 #3 → total luciferase, z-score = 0.442; total luciferase, % of control = 90.7
